In test [1] the target is AGO2 (human (endogenous in HEK293T)) (UniProt Q9UKV8). The experiment in a line: co-IP; endogenous AGO2 precipitated from HEK293T lysate with anti-AGO2 antibody on Protein A Sepharose (mouse IgG as control); blot with anti-DDX3.
The next test concerns the target T1, FLAG-tagged PACT (human) (UniProt O75569).
T1 sequence: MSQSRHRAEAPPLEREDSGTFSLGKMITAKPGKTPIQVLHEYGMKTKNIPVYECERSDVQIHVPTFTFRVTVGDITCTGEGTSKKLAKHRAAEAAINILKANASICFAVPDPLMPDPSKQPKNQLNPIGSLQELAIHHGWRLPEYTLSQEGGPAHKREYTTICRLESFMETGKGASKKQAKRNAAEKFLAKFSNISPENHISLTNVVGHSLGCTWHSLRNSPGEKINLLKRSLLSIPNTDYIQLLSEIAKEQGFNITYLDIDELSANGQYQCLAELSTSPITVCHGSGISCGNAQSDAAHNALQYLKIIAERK
The experiment in a line: co-IP; FLAG-tagged DDX3 or PACT precipitated from HEK293T lysate with ANTI-FLAG M2 Affinity Gel, 4 °C, 2 h; blot with anti-Dicer.

Amino acid sequences for entries named in this document (tags omitted).
UniProt Q9UKV8: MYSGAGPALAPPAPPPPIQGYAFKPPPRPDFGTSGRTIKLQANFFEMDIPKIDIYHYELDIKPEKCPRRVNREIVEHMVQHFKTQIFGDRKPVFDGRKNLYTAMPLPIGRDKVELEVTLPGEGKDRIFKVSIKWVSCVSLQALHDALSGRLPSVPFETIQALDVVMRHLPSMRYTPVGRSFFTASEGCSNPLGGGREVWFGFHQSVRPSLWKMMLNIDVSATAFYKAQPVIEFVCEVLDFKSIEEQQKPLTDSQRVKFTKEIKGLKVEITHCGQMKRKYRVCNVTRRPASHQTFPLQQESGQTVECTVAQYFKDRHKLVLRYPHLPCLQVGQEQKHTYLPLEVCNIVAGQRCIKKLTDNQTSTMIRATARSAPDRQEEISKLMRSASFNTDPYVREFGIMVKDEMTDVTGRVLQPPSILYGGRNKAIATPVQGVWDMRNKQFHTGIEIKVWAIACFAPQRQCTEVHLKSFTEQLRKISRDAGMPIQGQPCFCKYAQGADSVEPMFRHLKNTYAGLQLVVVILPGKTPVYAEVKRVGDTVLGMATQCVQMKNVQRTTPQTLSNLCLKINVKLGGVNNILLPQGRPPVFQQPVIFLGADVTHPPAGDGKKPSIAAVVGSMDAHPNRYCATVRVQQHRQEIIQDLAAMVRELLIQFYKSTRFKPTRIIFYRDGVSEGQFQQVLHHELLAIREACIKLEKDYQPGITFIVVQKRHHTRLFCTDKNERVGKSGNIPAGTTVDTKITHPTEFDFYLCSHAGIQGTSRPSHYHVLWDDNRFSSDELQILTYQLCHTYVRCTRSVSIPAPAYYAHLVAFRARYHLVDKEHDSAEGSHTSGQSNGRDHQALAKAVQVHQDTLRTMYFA
UniProt O00571: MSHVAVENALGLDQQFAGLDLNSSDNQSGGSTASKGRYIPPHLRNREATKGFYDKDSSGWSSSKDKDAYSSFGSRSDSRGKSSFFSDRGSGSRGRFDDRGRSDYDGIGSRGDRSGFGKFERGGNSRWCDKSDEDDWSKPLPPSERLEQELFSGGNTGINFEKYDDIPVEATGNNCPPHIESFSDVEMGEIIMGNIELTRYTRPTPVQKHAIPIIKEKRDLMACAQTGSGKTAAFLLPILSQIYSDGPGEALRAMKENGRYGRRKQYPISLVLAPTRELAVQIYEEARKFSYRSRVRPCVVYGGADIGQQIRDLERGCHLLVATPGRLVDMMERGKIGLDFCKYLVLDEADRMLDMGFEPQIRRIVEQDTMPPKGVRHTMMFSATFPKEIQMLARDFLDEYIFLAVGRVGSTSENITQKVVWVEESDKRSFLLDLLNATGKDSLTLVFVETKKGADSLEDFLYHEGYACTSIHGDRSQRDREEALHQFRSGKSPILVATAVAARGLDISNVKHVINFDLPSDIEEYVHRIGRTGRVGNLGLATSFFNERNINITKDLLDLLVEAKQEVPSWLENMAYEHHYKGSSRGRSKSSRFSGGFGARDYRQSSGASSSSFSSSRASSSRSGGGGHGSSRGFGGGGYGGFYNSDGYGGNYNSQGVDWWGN
UniProt Q9UPY3: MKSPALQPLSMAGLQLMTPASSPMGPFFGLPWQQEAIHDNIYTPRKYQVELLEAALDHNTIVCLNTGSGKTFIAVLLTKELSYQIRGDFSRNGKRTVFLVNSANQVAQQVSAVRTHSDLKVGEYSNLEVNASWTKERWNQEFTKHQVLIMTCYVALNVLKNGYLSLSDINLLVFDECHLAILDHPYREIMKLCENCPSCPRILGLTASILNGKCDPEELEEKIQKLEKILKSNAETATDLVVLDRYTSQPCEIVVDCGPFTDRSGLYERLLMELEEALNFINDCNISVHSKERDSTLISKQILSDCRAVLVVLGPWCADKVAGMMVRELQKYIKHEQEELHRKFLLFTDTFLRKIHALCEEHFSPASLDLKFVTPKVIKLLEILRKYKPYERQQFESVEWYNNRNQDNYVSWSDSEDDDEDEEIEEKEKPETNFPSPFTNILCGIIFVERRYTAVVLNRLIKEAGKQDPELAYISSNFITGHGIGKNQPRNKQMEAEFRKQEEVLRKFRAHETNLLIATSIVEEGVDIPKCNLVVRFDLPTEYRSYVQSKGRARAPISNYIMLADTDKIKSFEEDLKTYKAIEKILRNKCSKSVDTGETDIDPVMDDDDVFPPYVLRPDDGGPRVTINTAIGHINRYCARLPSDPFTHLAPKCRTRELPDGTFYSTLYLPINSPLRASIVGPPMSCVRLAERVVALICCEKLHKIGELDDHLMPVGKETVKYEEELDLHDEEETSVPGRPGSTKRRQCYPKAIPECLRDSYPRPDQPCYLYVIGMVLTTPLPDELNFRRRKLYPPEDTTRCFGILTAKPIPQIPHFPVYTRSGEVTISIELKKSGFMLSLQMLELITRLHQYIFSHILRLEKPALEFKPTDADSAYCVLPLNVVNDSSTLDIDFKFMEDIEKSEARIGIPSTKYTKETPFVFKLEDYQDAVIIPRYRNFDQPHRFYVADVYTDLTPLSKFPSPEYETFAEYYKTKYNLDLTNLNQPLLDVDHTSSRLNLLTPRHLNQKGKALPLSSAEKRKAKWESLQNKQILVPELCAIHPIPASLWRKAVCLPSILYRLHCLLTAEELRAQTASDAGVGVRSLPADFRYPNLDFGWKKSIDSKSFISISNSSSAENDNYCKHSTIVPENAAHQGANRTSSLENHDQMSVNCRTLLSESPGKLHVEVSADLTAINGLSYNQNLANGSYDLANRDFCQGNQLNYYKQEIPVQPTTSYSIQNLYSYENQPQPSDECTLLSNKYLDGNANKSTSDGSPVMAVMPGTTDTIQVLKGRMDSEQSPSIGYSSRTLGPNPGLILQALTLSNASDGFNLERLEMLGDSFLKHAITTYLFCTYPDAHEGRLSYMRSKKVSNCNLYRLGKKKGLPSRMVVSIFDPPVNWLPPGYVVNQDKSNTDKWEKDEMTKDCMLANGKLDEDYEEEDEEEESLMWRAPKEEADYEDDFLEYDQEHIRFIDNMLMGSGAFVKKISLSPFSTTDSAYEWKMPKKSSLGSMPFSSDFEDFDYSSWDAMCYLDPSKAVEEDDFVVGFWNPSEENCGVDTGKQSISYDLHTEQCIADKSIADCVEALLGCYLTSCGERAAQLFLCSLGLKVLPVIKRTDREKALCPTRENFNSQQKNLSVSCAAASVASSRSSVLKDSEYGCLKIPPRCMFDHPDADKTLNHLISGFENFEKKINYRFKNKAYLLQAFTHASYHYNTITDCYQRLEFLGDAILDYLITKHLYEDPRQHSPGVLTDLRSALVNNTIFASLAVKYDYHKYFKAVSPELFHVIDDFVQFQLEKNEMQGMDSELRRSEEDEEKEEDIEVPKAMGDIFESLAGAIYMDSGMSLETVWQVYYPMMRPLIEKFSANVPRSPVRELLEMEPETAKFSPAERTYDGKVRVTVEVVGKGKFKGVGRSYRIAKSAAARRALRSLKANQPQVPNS

Another test has as its target FLAG-tagged DDX3 (human) (UniProt O00571). The test is described as above.

Results are given in words; binding and its absence hold for the method and conditions named. In cells and extracts the contact can be indirect. Some binding calls cover weakened binding; strength is not graded here. For part of these data: Where a sequence is shown, tags or fusion partners need not be part of it.

For the substance “DDX3 (endogenous) (from UniProt O00571 1-662)”, the binding result in test [1] is “binds”.
Turning to “Dicer (from UniProt Q9UPY3 1-1922) (enzyme)”, the binding result is given as “binds” with FLAG-tagged PACT (human) and “binds weakly” with FLAG-tagged DDX3 (human).

The values above are taken from publication PMC11705417.
